This passage reports binding results from publication PMC5009256.

Chains of the proteins cited; added tags and fusions are not shown.
UniProt P10275: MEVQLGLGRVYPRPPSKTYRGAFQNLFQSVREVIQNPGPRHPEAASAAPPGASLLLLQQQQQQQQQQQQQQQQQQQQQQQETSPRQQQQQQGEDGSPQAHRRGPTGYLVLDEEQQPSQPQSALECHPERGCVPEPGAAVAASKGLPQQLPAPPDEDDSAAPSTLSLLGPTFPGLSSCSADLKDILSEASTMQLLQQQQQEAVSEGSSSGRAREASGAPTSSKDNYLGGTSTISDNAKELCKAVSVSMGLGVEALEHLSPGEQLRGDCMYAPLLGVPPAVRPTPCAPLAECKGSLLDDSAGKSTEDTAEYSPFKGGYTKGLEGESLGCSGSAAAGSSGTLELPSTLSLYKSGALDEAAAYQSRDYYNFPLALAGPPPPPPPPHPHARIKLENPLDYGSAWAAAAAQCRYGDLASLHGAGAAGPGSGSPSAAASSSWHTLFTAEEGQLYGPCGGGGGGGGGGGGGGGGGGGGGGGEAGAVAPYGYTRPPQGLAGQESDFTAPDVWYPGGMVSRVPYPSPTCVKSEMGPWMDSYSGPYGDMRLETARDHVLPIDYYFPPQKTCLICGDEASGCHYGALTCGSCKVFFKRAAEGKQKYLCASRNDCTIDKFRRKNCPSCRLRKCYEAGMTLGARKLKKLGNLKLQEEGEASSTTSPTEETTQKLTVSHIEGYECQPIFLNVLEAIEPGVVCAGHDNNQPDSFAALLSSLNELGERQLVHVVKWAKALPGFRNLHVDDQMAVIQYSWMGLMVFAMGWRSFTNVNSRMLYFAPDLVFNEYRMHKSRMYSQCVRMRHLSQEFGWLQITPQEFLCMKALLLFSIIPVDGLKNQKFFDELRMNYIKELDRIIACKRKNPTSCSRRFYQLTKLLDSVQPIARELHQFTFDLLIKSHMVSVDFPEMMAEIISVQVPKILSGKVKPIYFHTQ

This assay has as its target recombinant SBP-AR (rSBP-AR) (human) (UniProt P10275). Kind of assay: pull-down; in vitro translated rSBP-AR incubated with 200 µg cytosolic extract of AD or AS LNCaP cells and 25 µl streptavidin beads, with vehicle (ethanol) or 100 nM R1881; eluates blotted for COPE and COPD, compared with samples without rSBP-AR.

No constants are given. Whether binding was seen depends on the method and setting. In cells and extracts the contact can be indirect. Some entries that bind do so weakly or less than the wild type.

B1: COPD subunit of the COPI complex (protein, UniProt P48444 1-511)
chain: MVLLAAAVCTKAGKAIVSRQFVEMTRTRIEGLLAAFPKLMNTGKQHTFVETESVRYVYQPMEKLYMVLITTKNSNILEDLETLRLFSRVIPEYCRALEENEISEHCFDLIFAFDEIVALGYRENVNLAQIRTFTEMDSHEEKVFRAVRETQEREAKAEMRRKAKELQQARRDAERQGKKAPGFGGFGSSAVSGGSTAAMITETIIETDKPKVAPAPARPSGPSKALKLGAKGKEVDNFVDKLKSEGETIMSSSMGKRTSEATKMHAPPINMESVHMKIEEKITLTCGRDGGLQNMELHGMIMLRISDDKYGRIRLHVENEDKKGVQLQTHPNVDKKLFTAESLIGLKNPEKSFPVNSDVGVLKWRLQTTEESFIPLTINCWPSESGNGCDVNIEYELQEDNLELNDVVITIPLPSGVGAPVIGEIDGEYRHDSRRNTLEWCLPVIDAKNKSGSLEFSIAGQPNDFFPVQVSFVSKKNYCNIQVTKVTQVDGNSPVRFSTETTFLVDKYEIL
As for B1, the binding result is listed as “binds”.
